Publication PMC3979138
These are yes or no findings as the source states them, for the method shown. In cells and extracts the contact can be indirect. Some entries that bind do so weakly or less than the wild type.

Molecular target: T1, Endothelial protein C receptor (human (endogenous in RASFs)) (UniProt Q9UNN8)
T1 sequence: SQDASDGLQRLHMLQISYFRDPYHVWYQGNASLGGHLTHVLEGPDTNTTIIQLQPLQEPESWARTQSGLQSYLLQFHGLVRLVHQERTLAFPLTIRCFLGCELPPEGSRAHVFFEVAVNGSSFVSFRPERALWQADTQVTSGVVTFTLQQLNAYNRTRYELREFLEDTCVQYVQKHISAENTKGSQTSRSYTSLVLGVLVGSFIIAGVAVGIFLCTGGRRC
Assay: co-IP; RASF lysates (20 mM HEPES, 1% Triton X, 10% glycerol, protease and phosphate inhibitors); immunoprecipitation with anti-human EPCR antibody and A/G Plus-agarose; Western blot with anti-EPCR, then anti-sPLA2V antibody on the same membrane, non-reducing conditions

binding: binds
B1: Group V secretory phospholipase A2 (enzyme, UniProt P39877 21-138)
chain: GLLDLKSMIEKVTGKNALTNYGFYGCYCGWGGRGTPKDGTDWCCWAHDHCYGRLEEKGCNIRTQSYKYRFAWGVVTCEPGPFCHVNLCACDRKLVYCLKRNLRSYNPQYQYFPNILCS
